Measured values published in publication PMC4557272.

T1: SAPK8, yeast two-hybrid bait in pGBKT7 (rice (Oryza sativa)) (UniProt Q7Y0B9)
T1 sequence: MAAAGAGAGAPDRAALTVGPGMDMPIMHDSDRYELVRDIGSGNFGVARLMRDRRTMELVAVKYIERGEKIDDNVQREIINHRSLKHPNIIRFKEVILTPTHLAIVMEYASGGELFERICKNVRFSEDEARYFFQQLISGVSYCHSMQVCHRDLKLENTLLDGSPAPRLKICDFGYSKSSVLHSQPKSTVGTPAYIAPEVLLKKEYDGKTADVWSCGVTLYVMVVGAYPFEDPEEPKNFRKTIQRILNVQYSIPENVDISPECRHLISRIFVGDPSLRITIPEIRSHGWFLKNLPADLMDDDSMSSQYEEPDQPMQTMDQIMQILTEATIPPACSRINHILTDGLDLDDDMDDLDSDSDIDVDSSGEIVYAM

T2: SAPK10, yeast two-hybrid bait in pGBKT7 (rice (Oryza sativa)) (UniProt Q75H77)
T2 sequence: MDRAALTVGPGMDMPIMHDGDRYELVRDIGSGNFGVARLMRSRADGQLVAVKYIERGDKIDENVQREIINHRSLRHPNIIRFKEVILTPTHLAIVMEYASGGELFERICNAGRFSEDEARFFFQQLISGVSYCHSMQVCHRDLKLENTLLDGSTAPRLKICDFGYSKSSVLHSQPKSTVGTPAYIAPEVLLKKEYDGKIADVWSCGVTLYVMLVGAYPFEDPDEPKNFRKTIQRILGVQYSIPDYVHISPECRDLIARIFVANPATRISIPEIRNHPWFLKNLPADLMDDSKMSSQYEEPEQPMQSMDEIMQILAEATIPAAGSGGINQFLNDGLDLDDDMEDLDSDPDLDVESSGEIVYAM


Columns and labels:
[1] = molecular target: T1, SAPK8, yeast two-hybrid bait in pGBKT7 (rice (Oryza sativa)); experiment: two-hybrid; TE as prey in pGADT7, SAPKs as bait in pGBKT7, yeast strain AH109
[2] = molecular target: T2, SAPK10, yeast two-hybrid bait in pGBKT7 (rice (Oryza sativa)); experiment: as above
[3] = molecular target: Tiller Enhancer (TE), BiFC fusion TE-eYNE (rice (Oryza sativa)); experiment: split reporter; BiFC (eYFP halves) in N. benthamiana leaf epidermis cells, co-infiltrated with p19 and an ER marker; observed 48-72 h after infiltration by confocal microscopy

| binding [1] | binding [2] | binding [3] | Molecule |
| --- | --- | --- | --- |
| binds | binds |  | TE, yeast two-hybrid prey in pGADT7 (rice (Oryza sativa)) |
|  |  | binds | SAPK8, BiFC fusion in pSPYCE(M) (eYCE) (enzyme, UniProt Q7Y0B9 1-371) MAAAGAGAGAPDRAALTVGPGMDMPIMHDSDRYELVRDIGSGNFGVARLMRDRRTMELVAVKYIERGEKIDDNVQREIINHRSLKHPNIIRFKEVILTPTHLAIVMEYASGGELFERICKNVRFSEDEARYFFQQLISGVSYCHSMQVCHRDLKLENTLLDGSPAPRLKICDFGYSKSSVLHSQPKSTVGTPAYIAPEVLLKKEYDGKTADVWSCGVTLYVMVVGAYPFEDPEEPKNFRKTIQRILNVQYSIPENVDISPECRHLISRIFVGDPSLRITIPEIRSHGWFLKNLPADLMDDDSMSSQYEEPDQPMQTMDQIMQILTEATIPPACSRINHILTDGLDLDDDMDDLDSDSDIDVDSSGEIVYAM |
|  |  | binds | SAPK10, BiFC fusion in pSPYCE(M) (eYCE) (enzyme, UniProt Q75H77 1-362) MDRAALTVGPGMDMPIMHDGDRYELVRDIGSGNFGVARLMRSRADGQLVAVKYIERGDKIDENVQREIINHRSLRHPNIIRFKEVILTPTHLAIVMEYASGGELFERICNAGRFSEDEARFFFQQLISGVSYCHSMQVCHRDLKLENTLLDGSTAPRLKICDFGYSKSSVLHSQPKSTVGTPAYIAPEVLLKKEYDGKIADVWSCGVTLYVMLVGAYPFEDPDEPKNFRKTIQRILGVQYSIPDYVHISPECRDLIARIFVANPATRISIPEIRNHPWFLKNLPADLMDDSKMSSQYEEPEQPMQSMDEIMQILAEATIPAAGSGGINQFLNDGLDLDDDMEDLDSDPDLDVESSGEIVYAM |

No constants are given. Whether binding was seen depends on the method and setting. A result given as binding can be weak or reduced; the word gives no strength. For some of these results: Binding seen in cells or lysates may run through a third protein. For some of these results: Sequences can lack the tags named with a protein.
